Data source: PubChem BioAssay AID1259254 (NCATS, 2017)
Assay: 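Genome-wide screen for genes that prevent DNA re-replication in cancer cells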 (primary screen). System: human HCT116 colorectal cancer cells. Knock-down reagent: single siRNA against human genes. Duration: 3 days. Detection: 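Imaged Hoechst DNA stain sorts each cell into a cycle phase by DNA amount; per plate, G2 fraction set to 0% for non-targeting and 100% for GMNN siRNA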. Reading the numbers: G2 robust z-score and G2 cells, % of GMNN control: higher = more G2 cells, more excess DNA replication. Call rule: 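An siRNA counts as active if its G2 robust z-score lies at least 5 MADs above the screen median; here such calls match roughly 38% of GMNN control or more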.
The whole screen tested about 59,000 reagents; shown is a part drawn at random. Of all reagents, about 1,550 (2.6%) got an active call. 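G2 share is only a proxy for re-replication; each gene was hit by three separate siRNAs, and active genes were retested.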 The numbers tell different reagents against one gene apart. Not all columns of the deposit are shown. Not stated in the record: the amount of reagent.

no.	gene knocked down	reagent	G2 robust z-score	G2 cells, % of GMNN control	Outcome
1	SIGLEC1 (GeneID 6614)	1	-0.8	-2.66	inactive
2	SIGLEC1 (GeneID 6614)	2	-1.26	-5.91	inactive
3	SIGLEC1 (GeneID 6614)	3	2.89	23.3	inactive
4	AADACL2 (GeneID 344752)	1	-1.09	-4.73	inactive
5	AADACL2 (GeneID 344752)	2	0.51	6.56	inactive
6	AADACL2 (GeneID 344752)	3	2.4	19.9	inactive
7	THAP6 (GeneID 152815)	1	-0.772	-2.46	inactive
8	THAP6 (GeneID 152815)	2	-0.485	-0.447	inactive
9	THAP6 (GeneID 152815)	3	-0.0292	2.76	inactive
10	C4orf51 (GeneID 646603)	1	-0.946	-3.69	inactive
11	C4orf51 (GeneID 646603)	2	2.44	20.2	inactive
12	C4orf51 (GeneID 646603)	3	-0.747	-2.29	inactive
13	LINC00207 (GeneID 388910)	1	-0.245	1.24	inactive
14	LINC00207 (GeneID 388910)	2	1.59	14.2	inactive
15	LINC00207 (GeneID 388910)	3	1.62	14.4	inactive
16	ARL6 (GeneID 84100)	1	0.435	6.03	inactive
17	ARL6 (GeneID 84100)	2	1.8	15.7	inactive
18	ARL6 (GeneID 84100)	3	-0.037	2.71	inactive
19	ZC3H14 (GeneID 79882)	1	7.56	56.2	active
20	ZC3H14 (GeneID 79882)	2	0.721	8.04	inactive
21	ZC3H14 (GeneID 79882)	3	-0.392	0.213	inactive
22	COX10 (GeneID 1352)	1	4.64	35.6	inactive
23	COX10 (GeneID 1352)	2	1.31	12.2	inactive
24	COX10 (GeneID 1352)	3	1.91	16.4	inactive
25	ARHGEF38 (GeneID 54848)	1	-0.686	-1.86	inactive
26	ARHGEF38 (GeneID 54848)	2	-0.0527	2.6	inactive
27	ARHGEF38 (GeneID 54848)	3	2.04	17.3	inactive
28	SLC1A1 (GeneID 6505)	1	0.625	7.37	inactive
29	SLC1A1 (GeneID 6505)	2	-1.11	-4.85	inactive
30	SLC1A1 (GeneID 6505)	3	-0.906	-3.41	inactive
